Reference: PMC4158885

Sequences of proteins named here, by UniProt entry; tags and fusion partners are left off.
UniProt P08515, whole entry: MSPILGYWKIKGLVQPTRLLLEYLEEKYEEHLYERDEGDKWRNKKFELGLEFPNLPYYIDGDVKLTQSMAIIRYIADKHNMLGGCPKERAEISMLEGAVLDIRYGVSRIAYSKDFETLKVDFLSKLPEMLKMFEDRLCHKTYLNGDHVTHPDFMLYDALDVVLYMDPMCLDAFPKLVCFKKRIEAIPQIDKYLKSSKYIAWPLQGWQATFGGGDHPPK

How the values were obtained:
[1] = target: T1, ctPan2 E899A (Chaetomium thermophilum) (UniProt G0SAK8); experiment: fluorescence polarization; conditions: 1 mM Mg2+, much weaker than ctPan3 PKC, heading states Pan2 does not bind RNA; FP: 10 mM Tris pH 8.0, 50 mM NaCl, 1 mM MgCl2, 5 mM beta-mercaptoethanol, 20 nM RNA, temperature not stated; recombinant protein; protein details: Strep-II, His; label: 5' Cy3
T1 sequence (looked up, limits assumed): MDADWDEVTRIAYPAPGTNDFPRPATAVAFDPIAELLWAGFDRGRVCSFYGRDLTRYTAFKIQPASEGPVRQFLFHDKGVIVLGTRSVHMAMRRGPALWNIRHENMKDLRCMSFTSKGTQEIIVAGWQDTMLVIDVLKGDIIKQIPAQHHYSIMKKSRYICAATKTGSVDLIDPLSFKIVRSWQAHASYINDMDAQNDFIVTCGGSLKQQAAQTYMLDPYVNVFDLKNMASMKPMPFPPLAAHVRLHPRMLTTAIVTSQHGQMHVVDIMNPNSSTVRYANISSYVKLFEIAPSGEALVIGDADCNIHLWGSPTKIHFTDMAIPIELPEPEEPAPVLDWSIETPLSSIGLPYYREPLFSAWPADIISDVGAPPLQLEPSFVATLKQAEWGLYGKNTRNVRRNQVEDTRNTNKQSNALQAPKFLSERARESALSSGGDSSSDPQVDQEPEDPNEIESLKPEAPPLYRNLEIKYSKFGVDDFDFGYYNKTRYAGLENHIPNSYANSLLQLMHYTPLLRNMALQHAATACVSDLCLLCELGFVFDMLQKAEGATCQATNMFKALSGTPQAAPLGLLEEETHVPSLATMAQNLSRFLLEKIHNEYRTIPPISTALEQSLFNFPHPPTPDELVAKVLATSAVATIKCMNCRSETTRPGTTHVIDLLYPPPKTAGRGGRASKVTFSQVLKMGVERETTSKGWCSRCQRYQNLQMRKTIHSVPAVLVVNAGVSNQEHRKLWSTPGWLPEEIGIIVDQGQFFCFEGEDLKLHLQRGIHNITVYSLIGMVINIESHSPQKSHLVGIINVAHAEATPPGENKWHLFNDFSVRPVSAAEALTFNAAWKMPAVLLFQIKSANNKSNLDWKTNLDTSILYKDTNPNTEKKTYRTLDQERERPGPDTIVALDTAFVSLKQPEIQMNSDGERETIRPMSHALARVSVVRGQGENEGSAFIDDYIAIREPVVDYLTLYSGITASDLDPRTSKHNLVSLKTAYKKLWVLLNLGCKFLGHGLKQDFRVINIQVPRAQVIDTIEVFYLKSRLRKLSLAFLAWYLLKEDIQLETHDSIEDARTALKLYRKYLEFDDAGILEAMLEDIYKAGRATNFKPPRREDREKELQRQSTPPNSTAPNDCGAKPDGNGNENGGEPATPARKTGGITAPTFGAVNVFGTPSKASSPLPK

GST = GST (UniProt P08515); experiment: fluorescence polarization; conditions: 1 mM Mg2+, negative control; FP: 10 mM Tris pH 8.0, 50 mM NaCl, 1 mM MgCl2, 5 mM beta-mercaptoethanol, 20 nM RNA, temperature not stated; recombinant protein; label: 5' Cy3

## AAAAAAAAAAAAAAAAAAAAAAAAA [Cy3-A25 RNA]
[1]
  binding result: binds more weakly
GST
  binding result: no binding

The exact form of at least one protein or probe is not confirmed. For some assays here: A negative result means that nothing was seen under these conditions. For some assays here: The comparison behind a weaker result is the experiment's own reference, which may not be listed here. For some assays here: Tags and fusion partners may be left off the protein sequences shown.
